Assay results from publication PMC10657365.

Chains of the proteins cited; added tags and fusions are not shown.
UniProt Q99613: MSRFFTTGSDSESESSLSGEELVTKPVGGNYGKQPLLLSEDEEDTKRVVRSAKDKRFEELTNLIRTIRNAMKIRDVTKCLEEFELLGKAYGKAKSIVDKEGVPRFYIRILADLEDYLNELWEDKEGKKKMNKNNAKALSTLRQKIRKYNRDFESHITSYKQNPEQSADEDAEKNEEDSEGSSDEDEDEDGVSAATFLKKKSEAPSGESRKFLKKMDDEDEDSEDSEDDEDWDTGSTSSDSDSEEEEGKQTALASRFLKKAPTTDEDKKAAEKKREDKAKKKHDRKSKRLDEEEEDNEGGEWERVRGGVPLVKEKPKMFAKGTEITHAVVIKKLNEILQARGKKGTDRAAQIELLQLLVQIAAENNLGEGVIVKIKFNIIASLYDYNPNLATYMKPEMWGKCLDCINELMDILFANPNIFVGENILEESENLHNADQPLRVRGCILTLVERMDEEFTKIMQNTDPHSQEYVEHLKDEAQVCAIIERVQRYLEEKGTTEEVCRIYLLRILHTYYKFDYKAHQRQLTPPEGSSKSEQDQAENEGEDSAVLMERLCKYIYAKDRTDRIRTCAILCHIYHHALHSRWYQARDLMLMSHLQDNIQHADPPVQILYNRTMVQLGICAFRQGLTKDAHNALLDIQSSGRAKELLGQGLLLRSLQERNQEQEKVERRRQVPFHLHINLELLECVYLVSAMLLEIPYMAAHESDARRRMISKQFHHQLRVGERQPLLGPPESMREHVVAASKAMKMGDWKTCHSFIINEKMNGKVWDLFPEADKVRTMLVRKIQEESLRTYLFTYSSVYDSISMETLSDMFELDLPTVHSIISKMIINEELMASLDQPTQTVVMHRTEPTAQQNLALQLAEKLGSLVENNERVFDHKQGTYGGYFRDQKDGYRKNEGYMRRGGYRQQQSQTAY

Molecular target: Smad ubiquitin regulatory factor 2 (SMURF2), bait of the mass spectrometry analysis in OC cells (human (in human OC cells)) (UniProt Q9HAU4)
Assay: affinity purification with mass spectrometry; SMURF2 precipitate from OC cells analysed by mass spectrometry

binding: binds
Substance: EIF3c (from UniProt Q99613 1-913)

No constants are given. Whether binding was seen depends on the method and setting. Binding seen in cells or lysates may run through a third protein. A yes stands for co-enrichment or nearness to the bait. Other partners may have been found.
